The other results are listed elsewhere or left out. The data scatter; read single values as rough.
Key:
[1] = compound: ClCC(=O)N[C@@H]1CCCc2ccccc12; test: log2 mean competition ratio of IA-DTB cysteine labelling (DMSO/compound) (log2 ratio); higher = stronger cysteine engagement by compound; conditions: treatment time: 4 h, cell line lysate: HEK293T
Method: (§1)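 IA-DTB competitive cysteine chemoproteomics in HEK293T RIPA lysate. Lysates were treated with compound 29 or 30 at 50 or 200 µM for 4 h, then IA-DTB (500 µM, 1 h), trypsin-digested, NeutrAvidin-enriched and analysed by diaPASEF. Competition ratio = intensity DMSO / intensity compound (n=4 treated, n=64 DMSO); binding: mean log2 CR ≥ 1 and p ≤ 0.05 plus QC filters. Target is the cysteine site.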

Chains of the proteins cited; added tags and fusions are not shown. Lines headed by an entry give the natural chain unless they say otherwise; changes in a name come on top. Residues count along the entry.
UniProt Q8N122: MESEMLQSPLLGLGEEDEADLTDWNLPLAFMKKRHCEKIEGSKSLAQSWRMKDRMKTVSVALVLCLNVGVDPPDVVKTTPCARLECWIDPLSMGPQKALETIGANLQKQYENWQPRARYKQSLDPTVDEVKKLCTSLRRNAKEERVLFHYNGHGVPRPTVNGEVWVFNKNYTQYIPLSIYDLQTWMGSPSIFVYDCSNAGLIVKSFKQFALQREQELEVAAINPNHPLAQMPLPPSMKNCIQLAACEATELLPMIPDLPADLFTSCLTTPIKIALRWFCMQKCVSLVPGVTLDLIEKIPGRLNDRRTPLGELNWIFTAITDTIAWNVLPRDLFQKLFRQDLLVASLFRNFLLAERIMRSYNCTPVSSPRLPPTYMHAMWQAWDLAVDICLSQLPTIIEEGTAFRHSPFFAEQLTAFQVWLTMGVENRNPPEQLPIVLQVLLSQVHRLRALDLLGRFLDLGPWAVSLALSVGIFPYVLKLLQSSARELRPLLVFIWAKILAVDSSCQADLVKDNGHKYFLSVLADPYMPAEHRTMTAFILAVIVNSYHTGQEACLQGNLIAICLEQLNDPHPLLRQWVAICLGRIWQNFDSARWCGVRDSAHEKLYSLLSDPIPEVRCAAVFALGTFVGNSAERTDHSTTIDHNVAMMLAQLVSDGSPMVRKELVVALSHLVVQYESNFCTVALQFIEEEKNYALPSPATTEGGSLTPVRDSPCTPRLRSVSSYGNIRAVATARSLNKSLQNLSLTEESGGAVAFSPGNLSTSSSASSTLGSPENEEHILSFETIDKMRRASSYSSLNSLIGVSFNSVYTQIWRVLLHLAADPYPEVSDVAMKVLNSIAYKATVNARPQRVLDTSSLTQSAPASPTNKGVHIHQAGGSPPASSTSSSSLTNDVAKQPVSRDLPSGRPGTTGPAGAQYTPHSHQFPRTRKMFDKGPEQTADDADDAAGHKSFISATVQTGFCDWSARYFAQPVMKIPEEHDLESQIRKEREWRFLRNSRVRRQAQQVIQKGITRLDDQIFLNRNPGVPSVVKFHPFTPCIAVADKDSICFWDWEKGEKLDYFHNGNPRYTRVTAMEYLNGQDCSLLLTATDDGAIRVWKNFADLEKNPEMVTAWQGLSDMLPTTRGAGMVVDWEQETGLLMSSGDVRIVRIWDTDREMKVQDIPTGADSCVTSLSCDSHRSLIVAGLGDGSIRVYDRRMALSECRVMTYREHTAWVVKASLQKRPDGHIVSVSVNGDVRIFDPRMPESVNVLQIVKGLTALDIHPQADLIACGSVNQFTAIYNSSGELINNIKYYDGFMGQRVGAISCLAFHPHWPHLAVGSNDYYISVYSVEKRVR
UniProt Q8TDP1, 23-46: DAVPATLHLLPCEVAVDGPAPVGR
UniProt Q05823: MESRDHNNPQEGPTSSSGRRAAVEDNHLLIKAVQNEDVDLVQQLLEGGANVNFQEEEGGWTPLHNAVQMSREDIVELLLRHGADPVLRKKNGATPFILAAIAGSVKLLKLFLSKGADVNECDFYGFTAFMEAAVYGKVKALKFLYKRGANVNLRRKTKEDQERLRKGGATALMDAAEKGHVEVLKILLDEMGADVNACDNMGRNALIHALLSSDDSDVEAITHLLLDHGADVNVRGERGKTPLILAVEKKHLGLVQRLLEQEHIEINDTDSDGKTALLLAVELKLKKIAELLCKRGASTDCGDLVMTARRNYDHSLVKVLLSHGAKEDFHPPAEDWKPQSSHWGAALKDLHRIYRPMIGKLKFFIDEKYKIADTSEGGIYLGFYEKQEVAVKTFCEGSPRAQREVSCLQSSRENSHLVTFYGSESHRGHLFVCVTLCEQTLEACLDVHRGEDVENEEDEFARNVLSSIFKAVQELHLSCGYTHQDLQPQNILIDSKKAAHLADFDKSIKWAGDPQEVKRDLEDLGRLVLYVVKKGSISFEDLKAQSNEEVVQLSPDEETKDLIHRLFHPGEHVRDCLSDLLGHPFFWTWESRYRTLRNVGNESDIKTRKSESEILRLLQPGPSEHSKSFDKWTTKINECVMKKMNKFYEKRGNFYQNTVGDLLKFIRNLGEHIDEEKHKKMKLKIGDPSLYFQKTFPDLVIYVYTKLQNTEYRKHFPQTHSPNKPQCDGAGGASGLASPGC
UniProt P28702: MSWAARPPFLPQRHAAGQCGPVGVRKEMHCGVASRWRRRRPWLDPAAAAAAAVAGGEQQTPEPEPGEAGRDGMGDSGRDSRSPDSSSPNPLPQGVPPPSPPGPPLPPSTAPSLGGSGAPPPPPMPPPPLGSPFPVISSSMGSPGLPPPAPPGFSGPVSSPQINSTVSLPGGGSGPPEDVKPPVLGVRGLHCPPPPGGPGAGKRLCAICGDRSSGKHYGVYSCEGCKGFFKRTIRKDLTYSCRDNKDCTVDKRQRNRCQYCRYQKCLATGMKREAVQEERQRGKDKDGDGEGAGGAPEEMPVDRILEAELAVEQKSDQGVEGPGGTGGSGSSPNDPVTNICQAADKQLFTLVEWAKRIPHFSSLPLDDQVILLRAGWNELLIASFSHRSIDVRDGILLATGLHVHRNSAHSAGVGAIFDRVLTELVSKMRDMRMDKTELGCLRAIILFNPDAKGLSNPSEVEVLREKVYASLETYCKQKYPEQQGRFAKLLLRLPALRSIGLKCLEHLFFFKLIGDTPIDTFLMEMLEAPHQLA
UniProt Q13464: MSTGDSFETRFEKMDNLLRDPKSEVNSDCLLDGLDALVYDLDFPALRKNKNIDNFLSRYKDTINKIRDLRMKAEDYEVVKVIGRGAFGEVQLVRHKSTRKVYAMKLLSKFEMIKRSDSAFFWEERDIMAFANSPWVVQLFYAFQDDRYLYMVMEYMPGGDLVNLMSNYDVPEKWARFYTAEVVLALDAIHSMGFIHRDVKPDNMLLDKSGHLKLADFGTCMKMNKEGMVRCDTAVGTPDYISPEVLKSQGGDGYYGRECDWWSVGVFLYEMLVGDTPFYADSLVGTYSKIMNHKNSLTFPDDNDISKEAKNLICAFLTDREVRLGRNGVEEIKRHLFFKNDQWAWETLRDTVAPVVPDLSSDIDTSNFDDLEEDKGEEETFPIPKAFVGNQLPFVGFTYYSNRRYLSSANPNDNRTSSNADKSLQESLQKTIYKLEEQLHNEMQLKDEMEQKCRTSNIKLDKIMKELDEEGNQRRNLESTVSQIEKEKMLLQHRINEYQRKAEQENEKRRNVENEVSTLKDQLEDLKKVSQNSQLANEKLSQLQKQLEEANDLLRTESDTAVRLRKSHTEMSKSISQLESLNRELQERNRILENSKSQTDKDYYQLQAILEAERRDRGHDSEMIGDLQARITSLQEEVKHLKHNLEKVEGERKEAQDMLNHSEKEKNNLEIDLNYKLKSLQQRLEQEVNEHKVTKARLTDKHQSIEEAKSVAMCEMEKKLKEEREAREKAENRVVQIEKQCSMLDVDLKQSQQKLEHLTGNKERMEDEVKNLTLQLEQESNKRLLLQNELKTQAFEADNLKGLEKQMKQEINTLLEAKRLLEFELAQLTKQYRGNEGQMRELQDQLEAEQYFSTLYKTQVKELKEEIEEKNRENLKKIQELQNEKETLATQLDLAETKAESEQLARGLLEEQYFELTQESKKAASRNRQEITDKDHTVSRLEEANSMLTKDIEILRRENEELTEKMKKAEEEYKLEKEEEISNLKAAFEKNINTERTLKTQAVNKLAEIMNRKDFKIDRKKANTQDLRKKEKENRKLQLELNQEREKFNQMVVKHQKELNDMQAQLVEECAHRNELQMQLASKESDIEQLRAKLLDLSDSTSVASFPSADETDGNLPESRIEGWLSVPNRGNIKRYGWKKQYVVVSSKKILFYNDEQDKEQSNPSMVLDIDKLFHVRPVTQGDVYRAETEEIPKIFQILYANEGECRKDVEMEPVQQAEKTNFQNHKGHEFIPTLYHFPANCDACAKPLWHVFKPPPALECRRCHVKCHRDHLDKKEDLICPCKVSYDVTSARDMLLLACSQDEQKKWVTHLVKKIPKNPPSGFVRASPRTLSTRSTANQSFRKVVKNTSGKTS
UniProt Q9Y3A4: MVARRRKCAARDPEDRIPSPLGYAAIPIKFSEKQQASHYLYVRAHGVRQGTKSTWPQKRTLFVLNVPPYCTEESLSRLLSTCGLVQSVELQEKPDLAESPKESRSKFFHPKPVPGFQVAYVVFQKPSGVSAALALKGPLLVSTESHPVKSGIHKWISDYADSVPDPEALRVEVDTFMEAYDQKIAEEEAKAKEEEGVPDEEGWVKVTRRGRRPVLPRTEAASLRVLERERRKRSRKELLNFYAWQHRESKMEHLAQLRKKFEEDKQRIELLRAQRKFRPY
UniProt Q9UBS8: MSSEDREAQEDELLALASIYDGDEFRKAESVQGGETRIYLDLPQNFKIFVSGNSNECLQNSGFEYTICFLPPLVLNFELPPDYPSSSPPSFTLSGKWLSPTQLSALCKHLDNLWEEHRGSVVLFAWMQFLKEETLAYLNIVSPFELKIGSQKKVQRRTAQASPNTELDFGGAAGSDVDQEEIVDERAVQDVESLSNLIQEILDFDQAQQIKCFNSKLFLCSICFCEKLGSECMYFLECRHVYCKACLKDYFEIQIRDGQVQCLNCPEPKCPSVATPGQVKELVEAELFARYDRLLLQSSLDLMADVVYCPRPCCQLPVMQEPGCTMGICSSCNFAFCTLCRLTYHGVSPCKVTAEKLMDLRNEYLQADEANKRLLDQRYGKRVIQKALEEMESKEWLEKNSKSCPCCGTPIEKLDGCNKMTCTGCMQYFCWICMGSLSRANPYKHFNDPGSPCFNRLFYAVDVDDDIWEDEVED
UniProt Q6PCB5, 2-28: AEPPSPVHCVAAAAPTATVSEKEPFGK
UniProt Q9BY42: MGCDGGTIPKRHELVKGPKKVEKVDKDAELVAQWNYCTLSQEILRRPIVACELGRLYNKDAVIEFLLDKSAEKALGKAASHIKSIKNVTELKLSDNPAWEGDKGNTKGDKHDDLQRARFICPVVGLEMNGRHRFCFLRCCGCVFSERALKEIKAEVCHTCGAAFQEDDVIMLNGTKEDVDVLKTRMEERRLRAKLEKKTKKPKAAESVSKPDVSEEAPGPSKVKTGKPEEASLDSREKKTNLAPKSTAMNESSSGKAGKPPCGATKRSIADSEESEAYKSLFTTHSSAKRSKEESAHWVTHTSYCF
UniProt Q8IXW5, whole entry, looked up: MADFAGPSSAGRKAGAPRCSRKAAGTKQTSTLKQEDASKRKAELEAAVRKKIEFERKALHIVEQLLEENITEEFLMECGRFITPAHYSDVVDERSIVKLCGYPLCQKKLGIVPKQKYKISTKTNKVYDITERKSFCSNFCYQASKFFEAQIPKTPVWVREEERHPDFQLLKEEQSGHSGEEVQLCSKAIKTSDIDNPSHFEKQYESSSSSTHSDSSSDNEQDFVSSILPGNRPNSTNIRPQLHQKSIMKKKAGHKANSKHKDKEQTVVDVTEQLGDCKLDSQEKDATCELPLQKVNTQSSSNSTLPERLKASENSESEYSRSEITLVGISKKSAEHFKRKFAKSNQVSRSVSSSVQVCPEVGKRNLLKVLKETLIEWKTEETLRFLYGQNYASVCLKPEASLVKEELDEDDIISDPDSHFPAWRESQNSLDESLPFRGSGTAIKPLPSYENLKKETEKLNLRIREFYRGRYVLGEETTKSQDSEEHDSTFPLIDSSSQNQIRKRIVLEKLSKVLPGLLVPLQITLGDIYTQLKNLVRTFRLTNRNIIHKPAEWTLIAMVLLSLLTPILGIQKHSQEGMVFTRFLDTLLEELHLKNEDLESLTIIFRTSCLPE
UniProt Q14684: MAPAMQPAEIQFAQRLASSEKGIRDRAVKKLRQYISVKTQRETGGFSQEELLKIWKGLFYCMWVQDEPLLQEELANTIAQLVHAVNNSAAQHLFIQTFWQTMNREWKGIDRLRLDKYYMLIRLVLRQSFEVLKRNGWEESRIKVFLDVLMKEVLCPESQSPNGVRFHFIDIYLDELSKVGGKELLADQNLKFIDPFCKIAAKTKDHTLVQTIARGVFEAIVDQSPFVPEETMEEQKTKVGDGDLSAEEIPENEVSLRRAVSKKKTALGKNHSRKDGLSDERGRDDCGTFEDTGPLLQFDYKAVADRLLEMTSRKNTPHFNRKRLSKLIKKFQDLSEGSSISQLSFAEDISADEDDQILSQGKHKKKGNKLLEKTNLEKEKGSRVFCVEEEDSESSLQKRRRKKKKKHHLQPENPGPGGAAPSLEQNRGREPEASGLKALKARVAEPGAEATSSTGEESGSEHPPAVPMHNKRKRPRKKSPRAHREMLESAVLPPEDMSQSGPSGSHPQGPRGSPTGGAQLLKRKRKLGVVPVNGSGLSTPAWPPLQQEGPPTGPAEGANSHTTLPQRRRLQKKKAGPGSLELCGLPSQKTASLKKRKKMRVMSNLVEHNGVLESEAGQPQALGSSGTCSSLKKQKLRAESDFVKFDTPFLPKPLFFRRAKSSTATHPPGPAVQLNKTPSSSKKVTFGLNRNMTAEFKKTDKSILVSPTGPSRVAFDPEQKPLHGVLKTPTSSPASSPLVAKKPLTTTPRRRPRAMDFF

[2] = compound: ClCC(=O)N[C@H]1CCCc2ccccc12; test: as above; conditions: treatment time: 4 h, cell line lysate: HEK293T
Method: as §1

Target	log2 mean competition ratio ([1]; 50 µM)	log2 mean competition ratio ([1]; 200 µM)	log2 mean competition ratio ([2]; 50 µM)	log2 mean competition ratio ([2]; 200 µM)
RPTOR C505 (UniProt Q8N122)	-0.208	-0.107	-0.371	-0.113
RNASEH2C C34 (UniProt Q8TDP1)	0.126	0.916	-0.249	-0.0252
RPTOR C283 (UniProt Q8N122)	0.219	0.142	0.0559	0.139
RNASEL C198 (UniProt Q05823)	-0.289	0.227	0.784	-0.15
RXRB C247 (UniProt P28702)	-0.197	0.0111	-0.285	0.0395
ROCK1 C231 (UniProt Q13464)	-0.263	0.0851	0.0286	0.036
SAE1 C146	-0.144	-0.172	-0.0428	-0.368
RRP7A C8 (UniProt Q9Y3A4)	0.117	0.194	-0.0878	0.0939
RTKN C78 (UniProt Q9BST9)	-0.0279	-0.153	0.0701	0.00321
RPL18A C109 (UniProt Q02543)	0.0699	-0.251	-0.212	-0.163
RPL34 C83 (UniProt P49207)	0.0741	-0.36	0.414	-0.165
RNF14 C270 (UniProt Q9UBS8)	-0.425	-0.0521	-0.427	-0.0141
RSBN1L C10 (UniProt Q6PCB5)	0.0128	-0.0553	0.502	-0.0352
RTF2 C262 (UniProt Q9BY42)	0.33	-0.37	0.363	-0.211
RPAP2 C288 (UniProt Q8IXW5)	-0.33	0.287	-0.00621	0.183
RTRAF C69 (UniProt Q9Y224)	-0.13	-0.313	-0.0712	-0.133
RRP1B C155 (UniProt Q14684)	0.255	-0.476	0.638	-0.581
RNF213 C4348	0.0252	0.0661	-0.159	0.0182
ROCK1 C714 (UniProt Q13464)	-0.033	-0.22	0.11	-0.165
RPL34 C49 (UniProt P49207)	-0.134	0.316	-0.143	0.375
RSL1D1 C211 (UniProt O76021)	-0.0285	0.0585	-0.032	0.0414

An excerpt of these results, bar-delimited.
Target | log2 mean competition ratio ([1]; 50 µM) | log2 mean competition ratio ([1]; 200 µM) | log2 mean competition ratio ([2]; 50 µM) | log2 mean competition ratio ([2]; 200 µM)
RPL34 C83 (UniProt P49207) | 0.0741 | -0.36 | 0.414 | -0.165
RNF14 C270 (UniProt Q9UBS8) | -0.425 | -0.0521 | -0.427 | -0.0141
RSBN1L C10 (UniProt Q6PCB5) | 0.0128 | -0.0553 | 0.502 | -0.0352
RTF2 C262 (UniProt Q9BY42) | 0.33 | -0.37 | 0.363 | -0.211

— the supplement of paper PMC11732987, “Enantioselective OTUD7B fragment discovery through chemoproteomics screening and high-throughput optimisation” (Communications Chemistry, 2025)
